The record followed here is US7105647 (WISCONSIN ALUMNI RESEARCH FOUNDATION, dated 2006).

The test deals with T1, Hsp90.
T1 construct: Endogenous Hsp90 of the translation lysate
The test is described as follows: co-IP of 35S-labelled in vitro translated protein with anti-Hsp90 antibody 3G3p90, phosphoimager. Here is the method:
Coimmunoprecipitation with Hsp90. Each MOP construct was in vitro translated in the presence of [^35S]-methionine in a TNT coupled transcription/translation system (Promega). Hsp90 immunoprecipitation assays were performed with monoclonal antibody 3G3p90 or a control IgM antibody, TEPC 183 (Sigma) essentially as described. Each immunoprecipitation was subjected to SDS-PAGE, and the resulting gel was dried. The level of radioactivity in each coprecipitated protein band was quantified on a Bio-Rad GS-363 Molecular Imager System. The amount of protein immunoprecipitated with the Hsp90 antibody is presented as a percentage of the amount of murine AHR immunoprecipitated in parallel assays.
4. Interaction of MOPs with Hsp90. In an effort to assess a MOP's ability to interact with Hsp90, we performed coimmunoprecipitation assays with anti Hsp90 antibodies. Given the remarkable stability of the Hsp90 complex with the AHR from the C57BL/6J mouse, we used this receptor species as a reference and compared all interactions relative to it. As additional controls, we immunoprecipitated ARNT and the human AHR as negative and positive controls, respectively. Despite our ability to readily detect huAHR-Hsp90 interactions, we were unable to detect ARNT, MOP2 or MOP5 interactions with Hsp90. In contrast, huAHR, MOP1, MOP3 and MOP4 all immunoprecipitated with HSP90-specific antisera. […]

B1: MOP3 (other)
chain: MSKEAVSLWALTVSLQPPVPLCVCREMTGSGRRKQQCVTLPFISRELCFYLLLFPPPRLEYTEHQGGIKNAREAHSQIEKRRRDKMNSFIDELASLVPTCNAMSRKLDKLTVLRMAVQHMKTLRGATNPYTEANYKPTFLSDDELKHLILRAADGFLFVVGCDRGKILFVSESVFKILNYSQNDLIGQSLFDYLHPKDIAKVKEQLSSSDTAPRERLIDAKTGLPVKTDITPGPSRLCSGARRSFFCRMKCNRPSVKVEDKDFPSTCSKKKADRKSFCTIHSTGYLKSWPPTKMGLDEDNEPDNEGCNLSCLVAIGRLHSHVVPQPVNGEIRVKSMEYVSRHAIDGKFVFVDQRATAILAYLPQELLGTSCYEYFHQDDIGHLAECHRQVLQTREKITTNCYKFKIKDGSFITLRSRWFSFMNPWTKEVEYIVSTNTVVLANVLEGGDPTFPQLTASPHSMDSMLPSGEGGPKRTHPTVPGIPGGTRAGAGKIGRMIAEEIMEIHRIRGSLRSSCGSSPLNITSTPPPDASSPGGKKILNGGTPDIPSSGLLSGQAQENPGYPYSDSSSILGENPHIGIDMIDNDQGSSSPSNDEAAMAVIMSLLEADAGLGGPVDFSDLPWPL
notes: also called huMOP3
Consider B1, for which the “percent of the amount of murine AHR immunoprecipitated with the Hsp90 antibody” value was 71%.
